From patent US9315793B2, “Enzymes that synthesize zingiberene” (Board of Trustees of Michigan State University, priority 2011, dated 2016)

Test system: LA2167-ZIS zingiberene synthase
Assay: GC-MS profile of products synthesized by recombinant LA2167-ZIS supplied with 2Z,6Z-FPP
Assay type: biochemical, Solanum habrochaites
Conditions: products of E. coli-expressed codon-optimized LA2167-ZIS (SEQ ID NO:3) supplied with 2Z,6Z-farnesyl diphosphate; GC-MS extracted ion 93

Compound | Peak Area %
CC(C)=CCCC(C)c1ccc(C)cc1 (stereo not drawn) [AR-curcumene] | 0.986%
C=C(CCC=C(C)C)[C@@H]1CC=C(C)CC1 [Bisabolene beta] | 0.107%
C=C(C)C(CO)C/C=C(/C)CCC=C(C)C (stereo not drawn) [Sesquilavandulol <Z>] | 0.228%
C=C1C=CC(C(C)CCC=C(C)C)CC1 (stereo not drawn) [Sesquiphellandrene beta] | 0.567%
CC(C)=CCC[C@H](C)[C@@H]1C=CC(C)=CC1 [α-zingiberene] | 97.839%
bergamotene | 0.273%
